Data published in patent US20160031951A1.
No constants are given. Whether binding was seen depends on the method and setting. Some binding calls cover weakened binding; strength is not graded here.

Chains of the proteins cited; added tags and fusions are not shown.
UniProt O95477: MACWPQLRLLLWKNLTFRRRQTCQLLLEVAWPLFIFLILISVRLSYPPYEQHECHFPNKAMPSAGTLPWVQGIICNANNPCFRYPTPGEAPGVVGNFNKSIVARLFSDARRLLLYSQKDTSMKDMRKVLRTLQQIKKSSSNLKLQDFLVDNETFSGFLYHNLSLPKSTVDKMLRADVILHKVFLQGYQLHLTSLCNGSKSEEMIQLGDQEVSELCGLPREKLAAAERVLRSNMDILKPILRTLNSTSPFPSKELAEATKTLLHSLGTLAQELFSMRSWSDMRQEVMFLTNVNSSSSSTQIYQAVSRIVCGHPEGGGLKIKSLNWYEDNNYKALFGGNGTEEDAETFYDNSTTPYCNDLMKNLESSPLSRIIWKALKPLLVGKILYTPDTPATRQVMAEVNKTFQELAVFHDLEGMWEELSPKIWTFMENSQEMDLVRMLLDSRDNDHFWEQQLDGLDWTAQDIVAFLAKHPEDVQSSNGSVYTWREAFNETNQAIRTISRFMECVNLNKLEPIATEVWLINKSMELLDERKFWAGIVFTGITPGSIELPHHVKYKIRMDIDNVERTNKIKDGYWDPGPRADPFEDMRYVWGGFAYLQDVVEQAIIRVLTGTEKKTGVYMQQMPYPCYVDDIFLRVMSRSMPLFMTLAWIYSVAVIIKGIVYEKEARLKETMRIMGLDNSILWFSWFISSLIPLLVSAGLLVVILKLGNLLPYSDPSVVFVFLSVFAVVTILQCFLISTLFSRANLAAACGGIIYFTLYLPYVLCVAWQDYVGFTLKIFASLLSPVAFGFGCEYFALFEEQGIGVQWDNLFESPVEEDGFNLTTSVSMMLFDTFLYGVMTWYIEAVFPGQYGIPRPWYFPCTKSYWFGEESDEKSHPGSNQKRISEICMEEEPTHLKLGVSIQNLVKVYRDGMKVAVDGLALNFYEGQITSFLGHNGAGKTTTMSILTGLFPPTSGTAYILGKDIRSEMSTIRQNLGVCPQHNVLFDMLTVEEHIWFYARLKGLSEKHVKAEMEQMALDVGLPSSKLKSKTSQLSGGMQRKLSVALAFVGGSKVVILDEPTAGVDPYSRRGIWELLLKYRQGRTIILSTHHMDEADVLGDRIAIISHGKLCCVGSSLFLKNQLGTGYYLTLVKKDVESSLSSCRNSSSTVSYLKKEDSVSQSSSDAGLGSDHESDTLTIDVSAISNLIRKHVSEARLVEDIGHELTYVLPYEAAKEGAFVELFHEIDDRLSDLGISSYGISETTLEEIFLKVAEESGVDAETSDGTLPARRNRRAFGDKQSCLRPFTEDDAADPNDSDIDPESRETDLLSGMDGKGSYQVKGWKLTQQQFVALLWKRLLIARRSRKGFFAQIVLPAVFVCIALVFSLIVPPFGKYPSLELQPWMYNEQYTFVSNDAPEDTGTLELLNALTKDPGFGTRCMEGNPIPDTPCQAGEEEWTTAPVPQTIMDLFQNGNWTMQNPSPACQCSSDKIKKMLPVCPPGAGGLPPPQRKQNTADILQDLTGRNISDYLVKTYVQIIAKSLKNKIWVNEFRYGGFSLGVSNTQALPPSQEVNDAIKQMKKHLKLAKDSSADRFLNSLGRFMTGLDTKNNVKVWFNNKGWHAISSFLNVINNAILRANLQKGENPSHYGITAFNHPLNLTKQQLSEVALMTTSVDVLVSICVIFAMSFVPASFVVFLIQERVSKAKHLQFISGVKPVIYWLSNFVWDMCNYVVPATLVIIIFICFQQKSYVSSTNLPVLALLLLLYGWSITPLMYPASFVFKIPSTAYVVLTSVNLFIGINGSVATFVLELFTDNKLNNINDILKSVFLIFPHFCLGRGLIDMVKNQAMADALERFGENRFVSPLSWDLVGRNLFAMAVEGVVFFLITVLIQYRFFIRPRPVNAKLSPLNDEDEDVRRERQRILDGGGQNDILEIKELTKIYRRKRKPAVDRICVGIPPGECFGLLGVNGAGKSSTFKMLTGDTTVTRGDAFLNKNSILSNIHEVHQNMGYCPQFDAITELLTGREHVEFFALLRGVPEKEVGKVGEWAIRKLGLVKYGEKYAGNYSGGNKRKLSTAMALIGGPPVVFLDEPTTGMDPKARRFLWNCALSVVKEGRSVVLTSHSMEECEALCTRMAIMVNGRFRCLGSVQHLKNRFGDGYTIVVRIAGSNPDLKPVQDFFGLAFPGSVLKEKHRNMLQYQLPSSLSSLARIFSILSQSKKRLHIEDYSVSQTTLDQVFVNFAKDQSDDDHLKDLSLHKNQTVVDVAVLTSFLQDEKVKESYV

Molecular target: ABCA1 on BHK cells stably transfected with ABCA1 (UniProt O95477)
Experiment: crosslinking assay and western blot with antibodies to peptide or apoA-I; BHK cells stably transfected with ABCA1

binding: binds
B1: ATI-5261 (peptide)
peptide: EVRSKLEEWFAAFREFAEEFLARLKS
